Data: US4933347A, “Diamidines and bis(imidazolines) for the treatment of and prophylaxis against pneumocystis carinii pneumonia” (University of North Carolina at Chapel Hill, priority 1988, dated 1990)
At least one read-out could not be matched to a standard name with certainty.

System: Pneumocystis carinii
Assay: Treatment of Pneumocystis carinii pneumonia in Sprague-Dawley rats (extent of disease by histologic score)
Assay type: in vivo, male Sprague-Dawley rats
Settings: 10 mg/kg i.v. daily, 14 days
Description: Induction and Treatment Of Pneumocystis Carinii in Sprague-Dawley Rats
Male Sprague-Dawley rats, barrier raised, non-certified virus free, weighing 150-200g were obtained from Hilltop Laboratories and housed individually. Animals were begun on a low (8%) protein diet (ICN Biomedicals, Cincinnati, OH) and drinking water containing tetracycline (0.5 mg/ml) and dexamethasone (1.0 μg/ml) immediately upon arrival. This treatment was given for the next 8 weeks, monitoring fluid intake daily and weighing animals weekly. Dilutions of the drinking solution were made when animals consumed too much fluid so as to prevent cortisone poisoning. At the beginning of the sixth week, animals were divided into groups of 8 animals each and the test compounds were administered daily by i.v. injection at a dose of 10 mg/kg, unless otherwise noted, for the next 14 days.
Animals were sacrificed at the end of the eighth week by chloroform inhalation and the left lung was removed aseptically and placed in sterile Hank's balanced salts solution without calcium or magnesium (HBSS-) for the ground tissue procedure. The right lung was inflated in situ with 10% […] and removed for histologic examination GMS staining. […]

N=C(N)c1ccc(OCCCCCOc2ccc(C(=N)N)cc2)cc1 [Example 12, Pentamidine, reference compound]
Extent of Disease by Histologic Score: number of animals with score 0.5 (0.5 = <10 cysts found per 2 sections): 3 animals | Extent of Disease by Histologic Score: number of animals with score 1 (1 = scattered cysts, <5% of lung involved): 5 animals | Extent of Disease by Histologic Score: number of animals with score 2 (2 = scattered cysts, 5-10% lung involved or small foci of infection): 2 animals | Extent of Disease by Histologic Score: number of animals with score 3 (3 = scattered cysts, 10-50% of lung involved with some intense areas of infection): 1 animals
